At least one compound was matched to its structure with a doubt left.
Experiments:
KRT80 = KRT80 inhibition in vivo assay (qRT-PCR, HCC515 xenograft tumors); parameters: species or system mouse; settings: C.B-17 SCID mice, single intravenous injection of anti-CD71-BRM Ab-CIDE, four days post-dose, qRT-PCR relative to GusB
PLAU = PLAU inhibition in vivo assay (qRT-PCR, HCC515 xenograft tumors); parameters: species or system mouse; settings: C.B-17 SCID mice, single intravenous injection of anti-CD71-BRM Ab-CIDE, four days post-dose, qRT-PCR relative to GusB

Cc1ncsc1-c1ccc([C@H](C)NC(=O)C2C[C@@H](OP(=O)(O)O)CN2C(=O)[C@@H](c2cc(OCCN3CCN(CCOc4cc(N5C6CCC5CN(c5cc(-c7ccccc7OCc7ccc(NC[C@@H](CCCCN(C)C)NC(=O)C8(C(=O)NCCCCCN(C)CCN9C(=O)C=CC9=O)CCC8)cc7)nnc5N)C6)ccn4)[C@@H](C)C3)no2)C(C)C)cc1 (some centres unmarked) [L1-PE-CIDE-4]
KRT80 inhib. (%) (KRT80): 34%
PLAU inhib. (%) (PLAU): 83%
